# Test results published in the supplement of paper PMC8616043.
# Where a name gives a salt, the structure may show the parent alone. The list shows a part of the results. Single values are uncertain here, since repeats match poorly.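 The cells are human U-2 OS cells that stably carry a GFP sensor with a nuclear import signal and a classical export signal. They were transfected to make PR50, a 50-repeat proline–arginine dipeptide protein from the ALS/FTD gene C9ORF72. Each well's nuclear-minus-cytoplasm GFP signal was scaled from in-plate DMSO (low) to PR-only wells (high), then scored against the other test wells on the plate; compounds scoring well below zero were called hits that reverse the PR effect.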
# Test system: U-2 OS NCT-C biosensor cells expressing PR50
# Assay: Z-score of normalised NCT-C biosensor translocation index in PR50-expressing cells; higher = more nuclear biosensor (more disrupted nuclear export)
# Conditions: 3 µM; 24 h
row,Structure (SMILES),Z-score
1,CCN1CCN(C(=O)Cc2ccc(Nc3ncc(F)c(Nc4ccc(C(=O)Nc5ccccc5Cl)cc4)n3)cc2)CC1 [Aurora-A Inhibitor I],inactive: 0.545
2,"CN1CCc2cc3c(cc2C1C1OC(=O)c2c1ccc1c2OCO1)OCO3 (single isomer, unassigned; (+)) [(+)-Bicuculline]",inactive: 0.235
3,CC(O)(CS(=O)(=O)c1ccc(F)cc1)C(=O)Nc1ccc(C#N)c(C(F)(F)F)c1 (centres undefined) [Bicalutamide (CDX)],inactive: 1.74
4,CC(O)(CS(=O)(=O)c1ccc(F)cc1)C(=O)Nc1ccc(C#N)c(C(F)(F)F)c1 (centres undefined) [Bicalutamide],inactive: -0.381
5,CCC1(C2=NCCN2)Cc2ccccc2O1 (centres undefined) [Efaroxan hydrochloride],inactive: -0.19
6,C/C(=C/C=C/[C@@H](C)C(=O)O)[C@H]1CN[C@H](C(=O)O)[C@H]1CC(=O)O [Domoic acid],inactive: -0.824
7,CC[C@@H](CO)NC(=O)[C@@H]1C=C2c3cccc4[nH]cc(c34)C[C@H]2N(C)C1 [Methylergonovine maleate salt],inactive: 0.372
8,CC[C@@H](CO)NC(=O)[C@@H]1C=C2c3cccc4[nH]cc(c34)C[C@H]2N(C)C1 [Methylergonovine maleate],inactive: 0.666
9,CC[C@@H](CO)NC(=O)[C@@H]1C=C2c3cccc4[nH]cc(c34)C[C@H]2N(C)C1 [Methylergonovine Maleate],inactive: -0.24
10,COc1cc2c(cc1O)CCN[C@@H]2C [Salsoline],inactive: -0.745
11,O=C(O)c1nn(Cc2ccc(Cl)cc2Cl)c2ccccc12 [Lonidamine],inactive: 0.678
12,O=c1[nH]oc2c1CCNC2 [THIP  hydrochloride],inactive: -0.279
13,CC(=O)O[C@H]1C(=O)[C@@]2(C)[C@H]([C@H](OC(=O)c3ccccc3)[C@]3(O)C[C@H](O)C(C)=C1C3(C)C)[C@]1(OC(C)=O)CO[C@@H]1C[C@@H]2O [Baccatin III],inactive: -0.505
14,c1cncc([C@@H]2CCCCN2)c1 (racemic) [(±)-Anabasine],inactive: -0.367
15,NC(Cc1cc(O)c(O)cc1O)C(=O)O (racemic) [6-Hydroxy-DL- DOPA],inactive: -0.314
16,"CN1C[C@H](CO)C[C@@H]2c3cccc4[nH]cc(c34)C[C@H]21 [9,10-Dihydrolysergol]",inactive: -1.25
17,"C[N+]1(C)[C@@H]2CC(OC(=O)[C@H](CO)c3ccccc3)C[C@H]1[C@@H]1O[C@@H]12 (single isomer, unassigned; (-)) [(-)-Scopolamine methyl nitrate]",inactive: -0.913
18,COc1ccc2c(c1O)-c1cccc3c1[C@@H](C2)N(C)CC3 [R(-)-Apocodeine hydrochloride],inactive: -0.99
19,COC1=CC(=O)O[C@@H](/C=C/c2ccc3c(c2)OCO3)C1 [Methysticin],inactive: -0.445
20,"CC(N)C(O)c1ccc(O)c(O)c1 (single isomer, unassigned; (-)) [(-)-alpha-Methyl norepinephrine]",inactive: -1.57

row,Structure (SMILES),Z-score
1,CC1C=CC=CCCC=CC=CC=CC=CC(OC2OC(C)C(O)C(N)C2O)CC2OC(O)(CC(O)C(O)CCC(O)CC(O)CC(O)CC(=O)OC(C)C(C)C1O)CC(O)C2C(=O)O (centres undefined) [Nystatin],inactive: -0.308
2,CC[C@H](C)/C=C(C)/C=C/C1=CC2=C(Cl)C(=O)[C@](C)(OC(C)=O)C(=O)C2=CO1 [Sclerotiorin],inactive: -0.195
3,Cc1cc([C@@H]2CCCN2C)on1 [ABT-418 hydrochloride],inactive: -0.477
4,CC[C@@H](CO)NC(=O)[C@@H]1C=C2c3cccc4c3c(cn4C)C[C@H]2N(C)C1 [Methysergide maleate],inactive: 0.159
5,N#C[C@H](O[C@@H]1O[C@H](CO[C@@H]2O[C@H](CO)[C@@H](O)[C@H](O)[C@H]2O)[C@@H](O)[C@H](O)[C@H]1O)c1ccccc1 [Amygdalin],inactive: -0.489
6,CC(C)C1CNC(C(=O)O)C1CC(=O)O (centres undefined) [Dihydrokainic acid],inactive: 0.0663
7,COc1cc2c(c(OC)c1OC)-c1ccc(OC)c(=O)cc1[C@@H](NC(C)=O)CC2 [Colchicine],inactive: 0.262
8,COc1cc2c(c3oc4cccc(O)c4c(=O)c13)[C@@H]1C=CO[C@@H]1O2 [Sterigmatocystin],inactive: -0.474
9,COc1ccc(CC2NCCc3cc(OC)c(OC)cc32)cc1OC (centres undefined) [Tetrahydropapaverine·HCl],inactive: -0.725
10,c1ccc2c(c1)OCC(C1=NCCN1)O2 (centres undefined) [Idazoxan hydrochloride],inactive: 0.342
11,"C[C@]12CC[C@@H](O)C[C@@H]1CC[C@@H]1[C@@H]2CC[C@]2(C)[C@@H](C(=O)CO)CC[C@@H]12 [3-alpha,21-Dihydroxy-5alpha-pregnan-20-one]",inactive: -0.543
12,CCCN(CCC)C1CCc2cccc(O)c2C1 (racemic) [(±)-8-Hydroxy- DPAT  hydrobromide],inactive: -0.388
13,CC1=C2C(=CO[C@H](C)[C@H]2C)C(O)=C(C(=O)O)C1=O [Citrinin],inactive: -0.468
14,CC(C)c1cccc(C(C)C)c1O [Propofol],inactive: -0.185
15,CC(=O)N[C@H]1CN2CC[C@H](O)[C@@H]2[C@@H](O)[C@@H]1O [6-Acetamido-6-deoxy-castanospermine],inactive: -0.399
16,CCCN1CCC[C@@H]2Cc3n[nH]cc3C[C@H]21 [(-)-Quinpirole hydrochloride],inactive: -0.499
17,C[C@]1(C(=O)O)CCC[C@]2(C)c3cc(O)ccc3CC[C@@H]12 [Podocarpic acid],inactive: -0.467
18,CN1C[C@H](CNC(=O)OCc2ccccc2)C[C@@H]2c3cccc4c3c(cn4C)C[C@H]21 [Metergoline],inactive: -0.0588
19,O=[N+]([O-])c1ncc[nH]1 [Azomycin],inactive: -0.27

# 2 entries picked at random from those above, as already listed:
row,Structure (SMILES),Z-score
11,"C[C@]12CC[C@@H](O)C[C@@H]1CC[C@@H]1[C@@H]2CC[C@]2(C)[C@@H](C(=O)CO)CC[C@@H]12 [3-alpha,21-Dihydroxy-5alpha-pregnan-20-one]",inactive: -0.543
18,CN1C[C@H](CNC(=O)OCc2ccccc2)C[C@@H]2c3cccc4c3c(cn4C)C[C@H]21 [Metergoline],inactive: -0.0588
